Primary screen of a compound library

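Viability assay of Plasmodium falciparum sporozoites; the read-out is not stated. The concentration is filed as 10 mM, unlikely as a test dose, so the dose is not known. Higher reads as lower viability (inferred: compounds with an IC50 in retests scored well above the rest). Strong results were mostly tested again. About 34,000 compounds were tested under these conditions; 0.84% (about 280) showed 50% or more at least once.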

Each number is a percent effect as filed.
How 0% and 100% were set is not recorded. Most values in the screen are low, and negative values occur.
This is an unselected part of the compounds tested.
Two or more numbers in one place are separate tests of the same structure; such repeats can differ widely.

| compound | percent effect |
|---|---|
| `CCN(CC)Cc1ccc(CNC(=O)C(C)(C)n2cc(Br)cn2)cc1` | 0.6857 |
| `CC(=O)N1CCC(Cc2cnc(-n3ccnc3)cn2)CC1` | -1.03 |
| `Cc1nc(C)n(C2CCCN(C(=O)COc3cccc(C#N)c3)C2)n1` (stereo unspecified) | 2.472 |
| `Cn1ccc(C(=O)N2CCCC(Cc3cccc4ncccc34)C2)n1` (stereo unspecified) | -9.597 |
| `O=C(c1cn(-c2ccccc2C(F)(F)F)nn1)N1CCSCC1` | -28.73 & -17.5 |
| `COc1c(CNC(C)C(=O)NC2CCCC2)c(C)nn1C` (stereo unspecified) | -2.176 |
| `Cc1cccc(CN(Cc2nc3c(cnn3C)c(=O)[nH]2)C2CC2)c1` | 1.167 |
| `Cc1ccc(C(=O)N2CCC3(CCCN(c4ncc(F)cn4)C3)C2)cn1.O=C(O)C(F)(F)F` (stereo unspecified) | 8.023 |
| `Cc1cc(-c2ccccc2Cl)nc(N)n1` | -14 |
| `CCN(CCCNC(=O)c1cc2cccc(F)c2o1)S(C)(=O)=O` | -6.696 |
| `Cc1cc(N2CCN(Cc3nccn3C)CC2)cc(C)n1` | 10.53 |
| `Cc1cccc(-n2ncc3c2CCCC3NCC(C)(C)CO)c1C` (stereo unspecified) | -23.04 & -21.72 |
| `O=C(O)C(F)(F)F.O=C(O)C(F)(F)F.[H][C@]12CCC[C@@]1(COc1ccccn1)CN(C(=O)c1cncc(C)c1)C2` | -5.596 |
| `CC(C)(C)c1n[nH]c(C2CN(C(=O)Cn3ccccc3=O)CCO2)n1` (stereo unspecified) | 1.848 |
| `Clc1ccc(-c2nnc(CNCCn3cccn3)o2)c(Cl)c1` | 13.51 |
| `Cc1ccc(NC2CCN(C(=O)c3c(C)noc3C)CC2)nn1` | 12.86 |
| `CN(C)CCOCC1CN(C(=O)[C@H]2CCCO2)Cc2ccnn2C1` (stereo partly specified) | -2.273 |
| `Cc1csc(C2CCCCN2C(=O)c2cn[nH]c2C)n1` (stereo unspecified) | 2.557 |
| `Cn1c(CN2CCCCC2)nnc1C1CCCN(C(=O)CCC(N)=O)C1` (stereo unspecified) | 1.213 |
| `COc1ccc(CNC(C)Cn2cccn2)cc1F` (stereo unspecified) | 0.7807 |
| `Cc1nccn1C1CCCN(C(=O)Cc2cn3ccccc3n2)C1` (stereo unspecified) | 3.916 |
| `CC(C)COc1cncc(N(C)C2CCN(c3ncccn3)CC2)n1` | -15.83 |
| `CC(=O)N(Cc1ncc(C)o1)C1CCN(Cc2cc(C)on2)C1` (stereo unspecified) | 6.224 |
| `Cc1ccc(C(=O)NCCSCc2cccs2)cn1` | -16 |
| `O=C(O)C(F)(F)F.O=C(O)C(F)(F)F.[H][C@@]12COC[C@@H](CC(=O)NCc3cccnc3)[C@]1([H])CN(C1CCC1)C2` | 5.394 |
| `[H][C@]12CCCCN1CCC[C@H]2CNC(=O)Cn1ccc2ccc(Br)cc21` | 7.675 |
| `Cc1cncnc1C1CCN(CCO)CC1` | 4.412 |
| `c1ccc(CCN2CCN(c3ccc4nncn4n3)CC2)cc1` | -0.6478 |
| `CCCSCC(=O)N1CCCC(CO)(CCC)C1` (stereo unspecified) | 10.92 |
| `Cc1ccc(-c2ncc(C(=O)NS(C)(=O)=O)s2)c(C)c1` | 3.863 |
| `O=C(N[C@@H]1CC[C@@H](N2CCOCC2)[C@@H]1O)c1cnn2cccnc12` | 7.085 |
| `Cc1cc(CN(C)C2CCCN(c3cccnn3)C2)on1` (stereo unspecified) | 18.89 & -4.721 & 21.56 |
| `CN1CC(Oc2ccccc2)=NC(SCC(=O)Nc2ccc(Cl)cc2)=N1` | 14.58 |
| `O=C(c1cnc(C2CC2)s1)N1CCCC(n2cccn2)C1` (stereo unspecified) | -1.6 |
| `O=C(NCC1CC1)C1CCC2(CCN(C(=O)c3cccnc3)CC2)O1.O=C(O)C(F)(F)F` (stereo unspecified) | -3.791 |
| `CNC(=O)C1CCN(c2nc3nc[nH]c(=O)c3s2)CC1` | 1.007 |
| `O=C(O)C(F)(F)F.O=C(O)C(F)(F)F.[H][C@@]12CCCO[C@]1([H])[C@H](N(C)Cc1ccco1)CN2Cc1c(C)noc1C` | 1.649 |
| `COCCC(=O)N1CCC2(COCc3c(C)nc(NCC4CC4)nc32)C1` (stereo unspecified) | -16.26 |
| `O=C(c1cscn1)N1CCC2(CCN(Cc3nccs3)CC2)CC1` | -7.378 |
| `Cn1cccc1C(=O)N1CCCN(CCCc2ccccc2)CC1` | -2.152 |
| `O=C1CCC(c2nc(C3CCN(C(=O)C4CC4)CC3)no2)N1` (stereo unspecified) | 9.195 |
| `c1cc(COc2ccc(CNC3CCc4ncnn4C3)cc2)ccn1` (stereo unspecified) | -5.568 |
| `COCCNC(=O)c1cc(-c2ccc3c(c2)CCO3)n[nH]1` | -47.7 & -39.2 |
| `Cl.OC1CCN(c2cncc(CCC3CCCN3)n2)CC1` (stereo unspecified) | -5.513 |
| `CC(C)C1SCC(=O)Nc2c1cnn2-c1ccc(F)cc1` (stereo unspecified) | -2.656 |
| `CCNC(=O)c1ncn2c1CN(C)S(=O)(=O)c1ccccc1-2` | 1.59 |
| `CC(C)(C)c1ncc(C(=O)NCCNC(=O)c2ccccc2)s1` | 2.363 |
| `O=C(O)C(F)(F)F.[H][C@]12CCC[C@@H](CNc3ncccn3)[C@@]1([H])CN(Cc1cccnc1)C2` | -2.48 |
| `Cc1ccccc1CC1(C(=O)O)CCCN(c2ncnc3[nH]ccc23)C1` (stereo unspecified) | -34.79 & -14.31 |
| `COc1cc(CN(C)C(=O)NCC(=O)NC(C)C)ccc1SC` | 4.379 |
| `O=C(O)C(F)(F)F.O=C(O)C(F)(F)F.c1cnn(Cc2nnc3n2CCCN(Cc2ccsc2)C3)c1` | -24.13 |
| `Cc1ccc(N2Cc3cnn(C)c3C(COCC3CC3)C2)nn1.O=C(O)C(F)(F)F.O=C(O)C(F)(F)F` (stereo unspecified) | 9.012 |
| `[H][C@]12CCN(S(C)(=O)=O)[C@@]1([H])C[C@@H](C(=O)Nc1nc(C)cs1)O2` | 3.682 |
| `CS(=O)(=O)C1=C(O)C(=O)N(c2ccccc2)C1c1ccccc1` (stereo unspecified) | -4.795 |
| `CC(=O)N1Cc2ccccc2OC2(CCN(C(=O)C3CCOC3)CC2)C1` (stereo unspecified) | -3.746 |

6 of the entries, repeated:

- O=C(N[C@@H]1CC[C@@H](N2CCOCC2)[C@@H]1O)c1cnn2cccnc12 | 7.085%
- O=C(O)C(F)(F)F.O=C(O)C(F)(F)F.[H][C@]12CCC[C@@]1(COc1ccccn1)CN(C(=O)c1cncc(C)c1)C2 | -5.596%
- COc1ccc(CNC(C)Cn2cccn2)cc1F (stereo unspecified) | 0.7807%
- CCN(CC)Cc1ccc(CNC(=O)C(C)(C)n2cc(Br)cn2)cc1 | 0.6857%
- Cc1ccc(C(=O)NCCSCc2cccs2)cn1 | -16%
- O=C1CCC(c2nc(C3CCN(C(=O)C4CC4)CC3)no2)N1 (stereo unspecified) | 9.195%

Source: ChEMBL document CHEMBL3988442, “University of Dundee, Small-Polar-MMV Screening Library” (2021).